Reference: PubChem BioAssay AID602196 (INSERM, 2012)

- Screen: 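Knock-downs that protect lung cancer cells from cisplatin or sensitise them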
- System: human A549 lung cancer cells
- Reagents: siRNA pair against human genes
- Duration: 48 h transfection before cisplatin; time from cisplatin to read-out not stated
- Challenge: cisplatin at a dose killing half of control-siRNA cells; exact dose and duration not given
- Read-out: 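Shift in cisplatin death relative to control siRNA, from -50 (all cells die) to +50 (no cells die); siRNAs harmful on their own scored 0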
- Reading the numbers: two-siRNA summed score (-2 to +2): higher = both siRNAs protect from cisplatin killing; -2 means both sensitise; mean protection from cisplatin (shift in death) and protection from cisplatin (shift in death), siRNA C and protection from cisplatin (shift in death), siRNA D: higher = protection from cisplatin killing
- Active means: 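Each siRNA scores 0 if harmful alone by LDH or WST-1, otherwise +1 if it reduces and -1 if it increases cisplatin killing; a gene is active when both siRNAs agree (sum +2 or -2)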
- Meaning of the calls: active = both siRNAs shift cisplatin killing the same way; inactive = no consistent shift, or siRNA harmful alone
The whole screen tested about 23,000 reagents; this is a random part of them. 455 of them (2%) count as active. 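Active includes both protection and sensitisation; some change values fall well beyond the stated -50 to +50 range.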 The record does not give: the amount of reagent.

Gene	two-siRNA summed score (-2 to +2)	mean protection from cisplatin (shift in death) (%)	protection from cisplatin (shift in death), siRNA C (%)	protection from cisplatin (shift in death), siRNA D (%)	Call
PPP6R3	-1	-8.9	-2.3	-15.5	inactive
COPG2	0	-0.8	6.4	-8.1	inactive
SDR16C5	0	-4.7	-7.5	-2	inactive
LOC388210 (retired record)	-1	-6.7	1.5	-14.9	inactive
LOC390367	0	7.1	5	9.3	inactive
LOC440940	0	15	10.2	19.8	inactive
RAPGEF5	0	2.1	0.1	4.1	inactive
LOC402146	0	18.6	29.2	8	inactive
MXD1	-1	-13.3	6.3	-32.8	inactive
PRC1	0	2.7	-1.9	7.4	inactive
SPATA3	0	3.8	-1	8.6	inactive
ITPK1	0	-8.3	-6.7	-10	inactive
LOC389814	1	12.9	5	20.8	inactive
FLJ46875	1	19.7	21	18.4	inactive
KRTAP15-1	1	12.2	16.5	7.9	inactive
LOC196752	0	12	14.1	9.8	inactive
TSC1	0	23.3	43.1	3.6	inactive
INTS11	0	16	5.8	26.2	inactive
RTEL1	-1	-30.1	-16.9	-43.3	inactive
LOC440519	0	10.8	3.5	18.1	inactive
FMO9P	-1	-3.7	7.9	-15.3	inactive
APOA2	0	5.2	-1.7	12.1	inactive
VPS29	0	12	12.9	11.2	inactive
DCHS1	0	4.5	9.6	-0.6	inactive
LOC387884	0	0.1	-6.6	6.7	inactive
OR13C2	0	3.2	6	0.5	inactive
OR14C36	0	2.6	3.5	1.6	inactive
TMEM18	1	9.3	5.2	13.4	inactive
GLG1	-1	-12	5.7	-29.8	inactive
ZNF566	0	1.6	-1.3	4.5	inactive
VEZF1	0	7.6	12	3.2	inactive
CHGB	0	2.8	4	1.6	inactive
IL34	0	7.7	13.8	1.6	inactive
CLASRP	0	0.2	15.2	-14.9	inactive
TBX1	1	10.4	23.4	-2.7	inactive
GNG2	0	-3.5	-13.7	6.7	inactive
LOC440561	0	11.4	15.6	7.2	inactive
CAPS	0	6.2	5	7.4	inactive
CTTN	-1	3.6	21.4	-14.3	inactive
CIDEB	0	-18.4	-3.9	-32.9	inactive
LOC339746	0	10.2	12.1	8.3	inactive
ANKRD40CL	0	10.1	7	13.1	inactive
SLC30A9	0	0.6	-3.5	4.7	inactive
NGF	0	-4.4	-2.7	-6.1	inactive
LOC441163	1	4.6	15.6	-6.3	inactive
MRPL45	0	5.7	15.2	-3.8	inactive
CDSN	0	5.1	3.5	6.7	inactive
CLDN5	0	7.1	5.2	9.1	inactive
TM6SF1	0	13	31.6	-5.5	inactive
PRY	0	-0.5	2.8	-3.9	inactive
TARS1	0	-4	7.7	-15.8	inactive
LOC400581	0	-0.5	-17	16	inactive
C4orf54	1	2.7	-3.8	9.1	inactive
KCNJ5-AS1	0	4.6	10.8	-1.7	inactive
C20orf144	0	-2.5	-13.5	8.5	inactive
MTAP	-2	-12.2	-13.6	-10.8	active
LOC440763	1	6.8	13.6	0	inactive
